{"source": "PubChem BioAssay AID1259308 (NCATS, 2017)", "screen": "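Knock-downs that increase output of a recombinant reporter protein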 (primary screen)", "cell system": "human HEK293 embryonic kidney cells stably expressing firefly luciferase (HEK-CMV-Luc2-Hygro)", "reagent": "single siRNA against human genes, 0.8 pmol siRNA per well", "timing": "72 h", "detection": "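Reporter luminescence and viable-cell signal on separate replicate plates, given as percent of non-targeting control and median/MAD z-scores, plus per-cell luciferase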", "reading the numbers": "total luciferase, z-score: higher = more reporter protein produced", "call rule": "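An siRNA counts as active if its total luciferase robust z-score exceeds 3; genes with two or more such siRNAs out of three were retested with fresh siRNAs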", "calls": "active = raised luciferase; inactive = no rise", "note": "The whole screen tested about 59,000 reagents; this is a random part of them. Of all reagents, about 1,510 (2.6%) are marked active. 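Calls use total luciferase alone and ignore viability, so some active siRNAs may act by altering cell number.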 Unmarked entries are inactive. Reagents against one gene are numbered here. Further read-outs or replicates are left out here."}
{"target":"PTGR1 (GeneID 22949)","siRNA no.":1,"total luciferase, z-score":0.973}
{"target":"PTGR1 (GeneID 22949)","siRNA no.":2,"total luciferase, z-score":-1.22}
{"target":"PTGR1 (GeneID 22949)","siRNA no.":3,"total luciferase, z-score":0.278}
{"target":"ADD1 (GeneID 118)","siRNA no.":1,"total luciferase, z-score":-0.292}
{"target":"ADD1 (GeneID 118)","siRNA no.":2,"total luciferase, z-score":-0.0306}
{"target":"ADD1 (GeneID 118)","siRNA no.":3,"total luciferase, z-score":-2.29}

Already shown: 2 of the entries above.
{"target":"PTGR1 (GeneID 22949)","siRNA no.":1,"total luciferase, z-score":0.973}
{"target":"PTGR1 (GeneID 22949)","siRNA no.":2,"total luciferase, z-score":-1.22}

Further records follow.
{"target":"GRM2 (GeneID 2912)","siRNA no.":1,"total luciferase, z-score":-1.34}
{"target":"GRM2 (GeneID 2912)","siRNA no.":2,"total luciferase, z-score":-0.86}
{"target":"GRM2 (GeneID 2912)","siRNA no.":3,"total luciferase, z-score":1.22}
{"target":"CDO1 (GeneID 1036)","siRNA no.":1,"total luciferase, z-score":-0.515}
{"target":"CDO1 (GeneID 1036)","siRNA no.":2,"total luciferase, z-score":0.623}
{"target":"CDO1 (GeneID 1036)","siRNA no.":3,"total luciferase, z-score":-0.304}
